In patent WO2017153953A1:
No constants are given. Whether binding was seen depends on the method and setting. Some results given as binding are weak or reduced against the parent protein; the word gives no strength.

T1: human MCAM expressed on transfected CHO cells (human) (UniProt P43121)
T1 sequence: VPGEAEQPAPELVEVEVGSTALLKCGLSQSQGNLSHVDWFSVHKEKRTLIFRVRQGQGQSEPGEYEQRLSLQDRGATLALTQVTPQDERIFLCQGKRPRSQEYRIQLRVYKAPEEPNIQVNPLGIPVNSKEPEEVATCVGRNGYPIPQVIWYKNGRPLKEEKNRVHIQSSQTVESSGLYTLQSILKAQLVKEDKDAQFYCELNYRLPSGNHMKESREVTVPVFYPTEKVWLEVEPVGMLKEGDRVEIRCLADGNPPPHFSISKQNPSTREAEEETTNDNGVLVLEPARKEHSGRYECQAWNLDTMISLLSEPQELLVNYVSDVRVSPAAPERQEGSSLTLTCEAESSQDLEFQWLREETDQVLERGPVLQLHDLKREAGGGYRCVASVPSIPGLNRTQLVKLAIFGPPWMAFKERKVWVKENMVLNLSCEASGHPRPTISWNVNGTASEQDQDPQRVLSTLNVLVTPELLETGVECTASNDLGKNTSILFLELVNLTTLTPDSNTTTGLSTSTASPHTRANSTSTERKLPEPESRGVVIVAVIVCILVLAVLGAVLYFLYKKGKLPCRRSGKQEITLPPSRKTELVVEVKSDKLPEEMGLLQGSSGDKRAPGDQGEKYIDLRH

T2: human MCAM protein (human) (UniProt P43121)
T2 sequence: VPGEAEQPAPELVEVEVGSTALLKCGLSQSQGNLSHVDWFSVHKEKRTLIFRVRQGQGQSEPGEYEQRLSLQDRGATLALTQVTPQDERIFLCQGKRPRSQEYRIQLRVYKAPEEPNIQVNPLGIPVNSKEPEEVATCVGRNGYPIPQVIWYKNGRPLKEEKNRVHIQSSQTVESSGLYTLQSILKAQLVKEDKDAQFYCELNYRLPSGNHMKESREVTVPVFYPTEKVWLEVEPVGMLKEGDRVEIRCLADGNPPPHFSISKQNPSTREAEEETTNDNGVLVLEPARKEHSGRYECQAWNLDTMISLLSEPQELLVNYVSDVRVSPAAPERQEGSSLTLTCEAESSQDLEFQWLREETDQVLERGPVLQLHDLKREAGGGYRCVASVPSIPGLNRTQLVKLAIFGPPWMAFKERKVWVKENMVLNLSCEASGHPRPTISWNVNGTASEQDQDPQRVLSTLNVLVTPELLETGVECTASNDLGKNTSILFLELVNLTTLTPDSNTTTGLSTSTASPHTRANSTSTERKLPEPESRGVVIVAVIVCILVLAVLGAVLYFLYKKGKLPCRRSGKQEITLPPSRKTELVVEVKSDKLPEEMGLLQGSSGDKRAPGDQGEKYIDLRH

T3: human MCAM domains 1 and 2 hFc (human) (UniProt P43121)
T3 sequence: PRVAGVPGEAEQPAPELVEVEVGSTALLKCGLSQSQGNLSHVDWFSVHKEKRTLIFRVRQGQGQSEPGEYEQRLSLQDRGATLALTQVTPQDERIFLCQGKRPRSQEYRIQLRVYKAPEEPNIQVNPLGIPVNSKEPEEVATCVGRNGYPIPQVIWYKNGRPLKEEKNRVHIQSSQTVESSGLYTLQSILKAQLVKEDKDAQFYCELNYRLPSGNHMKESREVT


Assays:
[1] = molecular target: T1, human MCAM expressed on transfected CHO cells (human); test: cells expressing human MCAM
[2] = molecular target: T2, human MCAM protein (human); test: summary of Examples 2 and 3
[3] = molecular target: T3, human MCAM domains 1 and 2 hFc (human); test: ForteBio Octet; MCAMhFc domains on anti-human IgG Fc biosensor, antibody at 5 ug/ml
[4] = molecular target: T2, human MCAM protein (human); test: bio-layer interferometry, ForteBio Octet QK; numbers stood in Table 6, which is not in this copy

Binder | binding [1] | binding [2] | binding [3] | binding [4]
rat anti-human MCAM monoclonal antibody clone 2120.4.19 (antibody, V domains shown) VH: QVQLKESGPGLVQPSQTLSLTCTVSGFSLTSNGVSWVRQPPGKGLEWIAAISSGGTTYYNSAFKSRLSISRNTSKSQVLLKMNSLQTEDTAMYFCARRYGYGWYFDFWGPGTMVTVSS VL: DIRMTQSPSLLSASVGDRVTLNCKASQNIYNSLAWYQQKLGEGPKVLIFNANSLQTGIPSRFSGSGSGTDFTLTISSLQPEDFATYFCQQFYSGYTFGAGTKLELK | binds | binds | binds | 
rat anti-human MCAM monoclonal antibody clone 2107.4.10 (antibody, V domains shown) VH: QVQLKESGPGLVQSSQTLSLTCTVSGFSLTSNGVSWVRQPPGKGLEWIAAISSGGSTYYNSAFKSRLSISRNTSKSQVLLKMNSLQTEDTGMYFCARHRPFYFDYWGQGVMVTVSS VL: DIQVTQSPSLLSASVGDRVTLNCKGSQNIYKSLAWFRLKRGEAPKLLIYDANSLQTGIPSRFSGSGSGTDFTLTITSLQPEDVATYFCQQYYSGYTFGAGTKLELK | binds | binds | binds | 
mouse anti-human MCAM monoclonal antibody clone 1174.1.3 (antibody, V domains shown) VH: QIQLVQSGPELKKPGETVKISCKASGYTFTNYGMNWVKQAPGKGLKWMGWINTYTGEPTYADDFKGRFALSLETSASTAYLQINNLKNEDMATYFCARYRYNKYERAMDYWGQGTSVTVSS VL: DIVLTQSPASLAVSLGQRATISCRASKSVSTSGYSYMYWYQQKPGQPPKLLIYLASNLESGVPARFSGSGSGTDFTLNIHPVEEEDAATYYCQHSRELPFTFGSGTKLEIK |  | binds |  | 
mouse anti-human MCAM monoclonal antibody clone 1414.1.2 (antibody, V domains shown) VH: EIQLQQTGPELVKPGASVKISCKASGYSFTDYIMLWVKQSHGKSLEWIGNINPYSGSSGYNLKFKGKATLTVDKSSSTAYMQLNSLTSEDSAVYYCARGKDFAMDYWGQGTSVTVSS VL: DIVMSQSPSSLAVSAGEKVTMSCKSSQSLLNSSTRKNFLAWYQQKPGQSPKLLIYWASTRESGVPDRFTGSGSGTDFTLTISSVQAEDLAVYYCKQSYNRYTFGGGTKLEIK |  | binds |  | 
mouse anti-human MCAM monoclonal antibody clone 1415.1.1 (antibody, V domains shown) VH: QVQLQQPGAELVQPGAPVKLSCKASGYIFTSYWMNWVKQRPGRGLEWIGRIDPSDSKIHYNQKFKDKATLTVDRSSSTAYIQLGSLTSEDSAVYYCAKEGGLRRGDYAMDYWGQGTSVTVSS VL: DIVMTQSPATLSVTPGDRVSLSCRASQSISDYLHWYQQKSHESPRLLIKYASQSISGIPSRFSGSGSGSDFTLSINSVEPEDVGVYYCQNGHNFPRTFGGGTKLEIK |  | binds |  | 
mouse anti-human MCAM monoclonal antibody clone 1749.1.3 (antibody, V domains shown) VH: DVKLVESGGDLVKPGGSLKLSCAASGFTFSSYIMSWVRQTPEKRLEWVATISSGGSSTYYPDSVKGRFTISRDNAKNTLYLQMSSLKSEDTAMYYCTRDDDYDVKVFAYWGQGTLVTVSA VL: DIVMSQSPSSLAVSAGEKVTMNCKSSRSLLNSRIRKNYLAWYQQKPGQSPKLLIYWASTRESGVPDRFTGSGSGTDFTLTISSVQAEDLAVYYCKQSYNLLTFGAGTKLELK |  | binds |  | binds
